{
  "source": "patent US20050014682A1",
  "about": "(priority 2003, published 2005)",
  "tested_on": "GSK-3",
  "experiment": "Cell-free in vitro assay, GSK-3 phosphorylation by phospho-GSK-3 immunoblot",
  "assay_type": "biochemical",
  "settings": "100 nM wortmannin, PM(+ins) and CYT, 15 min at 37° C.",
  "note": "For at least one compound, name, drawing or mass did not settle the structure.",
  "data": [
    {"smiles": "COC[C@H]1OC(=O)c2coc3c2[C@@]1(C)C1=C(C3=O)[C@@H]2CCC(=O)[C@@]2(C)C[C@H]1OC(C)=O", "note": "[wortmannin]", "values": [
      {"measurement": "insulin-stimulated GSK-3(α/β) phosphorylation", "value": "completely abrogated"}
    ]}
  ]
}
